Experimental findings from the supplement of paper PMC4862054 are described below.

Small differences around the control level are noise.

Experiment in all cases: normalised response (% of control), CellTox Green; higher = less cell death (100 = DMSO, 0 = benzethonium chloride kill control)
Common to all, as to conditions: incubation time: 72 h

One test concerns HCC1937. The protocol: (§1)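 DSRT, 72 h incubation, CellTox Green / CellTiter-Glo readout. Signal is normalised to DMSO and benzethonium chloride controls. Value is the normalised response at the lowest tested concentration.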
The subject of the next test is HCC1143. The protocol:
as §1

A further test has as its system MDA-MB-453. The protocol:
as §1

Another test deals with HCC1599. As to the method: as §1
The subject of another test is CAL-85-1. The protocol: as §1
For the next test, the system named is DU-4475. As to the method: as §1
The next test concerns BT-474. As to the method: as §1
Another test concerns BT-549. As to the method:
as §1

Another test relates to CAL-120. The protocol: as §1
Another test deals with MDA-MB-468. The protocol:
as §1

The test system of the next test is MCF-10A. The protocol: as §1
For a further test, the system named is HDQ-P1. As to the method:
as §1

Another test concerns MDA-MB-231. As to the method: as §1
The test system of another test is CAL-148. As to the method:
as §1

Another test relates to Hs578T. The protocol:
as §1

For another test, the system named is MDA-MB-436. As to the method:
as §1

A further test concerns CAL-51. The protocol:
as §1

The subject of another test is MFM-223. The protocol:
as §1

As for `Cc1c(Cn2c(C)nc3c(C(=O)O)cc(N4CCOCC4)cc32)cccc1C(F)(F)F` (1 nM), the normalised response was found to be 117% in the test on HCC1937; 117% in the test on HCC1143; 110% with MDA-MB-453; 123% in the test with HCC1599; 101% with CAL-85-1; 115% in the test on DU-4475. Besides, the normalised response in the test on BT-474 worked out at 92.5%; in the test on BT-549, 99%; with CAL-120, 104%; with MDA-MB-468, 82.7%; in the test on MCF-10A, 114%; in the test with HDQ-P1, 88.8%. In addition, the normalised response in the test on MDA-MB-231 stood at 111%; in the test on CAL-148, 110%; in the test on Hs578T, 121%; in the test with MDA-MB-436 it was 109%; in the test on CAL-51, 114%; in the test with MFM-223 it was 102%.
On to `CNC(=O)c1cccc(-c2ccc3c(N4CCOC[C@@H]4C)nc(N4CCOC[C@@H]4C)nc3n2)c1` [AZD2014] (1 nM), for which the normalised response came to 110% with HCC1937; 93.5% in the test with HCC1143; 105% in the test with MDA-MB-453; 110% in the test on HCC1599; 96.9% in the test on CAL-85-1; 103% with DU-4475. Besides, the normalised response stood at 88.3% in the test on BT-474; 77.7% with BT-549; 101% in the test with CAL-120; 70.3% with MDA-MB-468; 109% with MCF-10A; 82.4% in the test on HDQ-P1. Further, the normalised response in the test on MDA-MB-231 stood at 118%; in the test with CAL-148, 98%; in the test with Hs578T, 105%; with MDA-MB-436, 83.5%; in the test with CAL-51, 129%; in the test on MFM-223, 102%.
`COc1cc2c(Oc3ccc4[nH]c(C)cc4c3F)ncnc2cc1OCCCN1CCCC1` [Cediranib] (0.1 nM): the normalised response came out at 91.6% in the test with HCC1937; 120% in the test on HCC1143; 110% with MDA-MB-453; 97.5% in the test on HCC1599; 104% with CAL-85-1; 98.6% in the test with DU-4475. Also, the normalised response with BT-474 is 102%; with BT-549 it was 83.3%; in the test on CAL-120, 96.1%; in the test with MDA-MB-468 it was 72.7%; in the test on MCF-10A it was 86%; in the test on HDQ-P1, 100%. Also, the normalised response in the test with MDA-MB-231 is 99.2%; in the test with CAL-148 it was 81.6%; in the test with Hs578T it was 90.8%; in the test on MDA-MB-436, 76.7%; in the test with CAL-51, 120%; in the test with MFM-223, 94.3%.
As to `C[C@]12CC[C@@H]3c4ccc(OC(=O)N(CCCl)CCCl)cc4CC[C@H]3[C@@H]1CC[C@@H]2O` [Estramustine] (1 nM), the normalised response stood at 81.3% in the test on HCC1937; 92.8% in the test with HCC1143; 99.4% with MDA-MB-453; 97.6% with HCC1599; 102% in the test with CAL-85-1; 96.4% in the test on DU-4475. The normalised response in the test with BT-474 was 97.5%; with BT-549 it was 99.6%; in the test on CAL-120, 94.7%; in the test with MDA-MB-468 it was 130%; in the test with MCF-10A it was 90%; in the test on HDQ-P1, 52.3%. In addition, the normalised response stood at 93.2% in the test on MDA-MB-231; 61.2% in the test on CAL-148; 56.5% in the test with Hs578T; 97.5% with MDA-MB-436; 111% in the test on CAL-51; 94.1% with MFM-223.
With `CC(C)(C)NC(=O)[C@H]1CC[C@H]2[C@@H]3CC[C@H]4NC(=O)C=C[C@]4(C)[C@H]3CC[C@]12C` [Finasteride] (1 nM), the normalised response in the test on HCC1937 amounted to 109%; in the test with HCC1143, 118%; in the test on MDA-MB-453, 104%; in the test with HCC1599, 89.8%; with CAL-85-1, 108%; with DU-4475, 104%. Moreover, the normalised response with BT-474 worked out at 98.7%; in the test with BT-549, 99.3%; with CAL-120, 99.8%; with MDA-MB-468 it was 58.4%; with MCF-10A, 104%; in the test with HDQ-P1, 77.9%. In addition, the normalised response in the test with MDA-MB-231 turned out to be 102%; with CAL-148, 102%; with Hs578T, 84.5%; in the test on MDA-MB-436 it was 66.5%; in the test with CAL-51, 116%; in the test on MFM-223 it was 83.2%.
Consider `CC1(C)CNc2cc(NC(=O)c3cccnc3NCc3ccncc3)ccc21` [Motesanib] (1 nM), for which the normalised response was 107% with HCC1937; 118% in the test with HCC1143; 102% in the test on HCC1599; 103% with CAL-85-1; 90.5% in the test with DU-4475; 99.3% in the test with BT-474. The normalised response in the test on CAL-120 amounted to 99.3%; in the test with MDA-MB-468, 77.9%; with MCF-10A it was 91.4%; in the test on HDQ-P1, 100%; in the test on MDA-MB-231 it was 103%; with CAL-148 it was 103%. In addition, the normalised response in the test with Hs578T came to 88.1%; with MDA-MB-436 it was 61.6%; with CAL-51, 115%; with MFM-223, 96%.
On to `CN(C)C[C@@H]1CCn2cc(c3ccccc32)C2=C(C(=O)NC2=O)c2cn(c3ccccc23)CCO1` [Ruboxistaurin] (1 nM), for which the normalised response with HCC1937 turned out to be 71%; with HCC1143 it was 112%; in the test on MDA-MB-453, 96.1%; in the test with HCC1599, 89.5%; with CAL-85-1, 105%; in the test on DU-4475, 101%. The normalised response in the test with BT-474 is 97.9%; in the test with BT-549 it was 99.3%; in the test with CAL-120, 99.4%; in the test on MDA-MB-468, 96.3%; with MCF-10A, 104%; with HDQ-P1 it was 99.6%. Further, the normalised response with MDA-MB-231 stood at 98.5%; in the test on CAL-148, 100%; in the test with Hs578T it was 94.4%; with MDA-MB-436, 93%; in the test on CAL-51 it was 113%; in the test with MFM-223, 84.6%.
On to `Clc1ccc(Nc2nnc(Cc3ccncc3)c3ccccc23)cc1` [Vatalanib] (1 nM), for which the normalised response in the test with HCC1937 was determined as 89%; with HCC1143, 118%; with MDA-MB-453, 103%; with HCC1599 it was 105%; in the test with CAL-85-1 it was 99.6%; with DU-4475, 101%. Further, the normalised response in the test with BT-474 was 106%; with BT-549 it was 97.6%; with CAL-120, 98.8%; with MDA-MB-468, 94.1%; with MCF-10A, 105%; in the test on HDQ-P1, 101%. In addition, the normalised response in the test with MDA-MB-231 was 94.3%; with CAL-148, 93.6%; with Hs578T, 84.7%; in the test on MDA-MB-436, 82.8%; in the test with CAL-51, 103%; in the test on MFM-223 it was 102%.
